{"source": "PubChem BioAssay AID1224828 (NIAID, 2016)", "purpose": "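Find genes required for NF-kappaB p65 moving into the nucleus after LPS in mouse macrophages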 (primary screen)", "cells": "mouse RAW264.7 G9 macrophage reporter cells (GFP-p65, Tnf promoter-mCherry)", "knock-down reagent": "siRNA pool against mouse genes, 100 nM", "duration": "2 days siRNA transfection, then 40 min LPS before fixation", "challenge": "LPS (Salmonella minnesota R595) at 10 ng/ml", "detection": "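Microscopy ratio of nuclear to perinuclear-ring GFP-p65 signal, scaled to the plate median; gene score is the average of two replicate robust z-scores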", "scale": "p65 translocation robust z-score: higher = more nuclear NF-kappaB p65 after LPS than the plate median; nuclear/cytoplasmic p65 ratio: higher = more nuclear NF-kappaB p65", "hit rule": "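Active if robust z is above 3.3 (negative regulators) or below -1.56, the Tlr4 control median (positive regulators); activity score 50 or more; control wells not called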", "calls": "active = hit (p65 shift raised or lowered); inactive = no clear change", "note": "This is an unselected part of about 17,000 deposited reagents. Of all reagents, 762 (4.5%) were called active. 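Active calls include both raised and lowered p65 entry, mostly lowered; wells with fewer than 50 cells lack a z-score.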 Raw values vary from plate to plate and are shown uncorrected. Unmarked entries are inactive. No sequences are given here."}
{"Gene": "Or13a17 (GeneID 18344)", "p65 translocation robust z-score": -0.05, "nuclear/cytoplasmic p65 ratio, rep 1": 1.47, "nuclear/cytoplasmic p65 ratio, rep 2": 1.24, "low cell count flag": "enough cells to score"}
{"Gene": "Dstyk (GeneID 213452)", "p65 translocation robust z-score": 0.68, "nuclear/cytoplasmic p65 ratio, rep 1": 1.76, "nuclear/cytoplasmic p65 ratio, rep 2": 1.67, "low cell count flag": "enough cells to score"}
{"Gene": "Pim3 (GeneID 223775)", "p65 translocation robust z-score": 0.09, "nuclear/cytoplasmic p65 ratio, rep 1": 1.51, "nuclear/cytoplasmic p65 ratio, rep 2": 1.39, "low cell count flag": "enough cells to score"}
{"Gene": "Il27ra (GeneID 50931)", "p65 translocation robust z-score": 2.02, "nuclear/cytoplasmic p65 ratio, rep 1": 1.62, "nuclear/cytoplasmic p65 ratio, rep 2": 1.76, "low cell count flag": "enough cells to score"}
{"Gene": "Vmn1r89 (GeneID 171260)", "nuclear/cytoplasmic p65 ratio, rep 1": 1.49, "nuclear/cytoplasmic p65 ratio, rep 2": 1.31, "low cell count flag": "fewer than 50 cells per well; well left out of scoring"}
{"Gene": "Gripap1 (GeneID 54645)", "p65 translocation robust z-score": 0.78, "nuclear/cytoplasmic p65 ratio, rep 1": 1.6, "nuclear/cytoplasmic p65 ratio, rep 2": 1.46, "low cell count flag": "enough cells to score"}
{"Gene": "Zfp473 (GeneID 243963)", "p65 translocation robust z-score": -0.43, "nuclear/cytoplasmic p65 ratio, rep 1": 1.52, "nuclear/cytoplasmic p65 ratio, rep 2": 1.7, "low cell count flag": "enough cells to score"}
{"Gene": "Wdr45 (GeneID 54636)", "p65 translocation robust z-score": -0.42, "nuclear/cytoplasmic p65 ratio, rep 1": 1.3, "nuclear/cytoplasmic p65 ratio, rep 2": 1.25, "low cell count flag": "enough cells to score"}
{"Gene": "Abhd15 (GeneID 67477)", "nuclear/cytoplasmic p65 ratio, rep 1": 1.47, "nuclear/cytoplasmic p65 ratio, rep 2": 1.35, "low cell count flag": "fewer than 50 cells per well; well left out of scoring"}
{"Gene": "Myl4 (GeneID 17896)", "p65 translocation robust z-score": -0.62, "nuclear/cytoplasmic p65 ratio, rep 1": 1.36, "nuclear/cytoplasmic p65 ratio, rep 2": 1.27, "low cell count flag": "enough cells to score"}
{"Gene": "Evl (GeneID 14026)", "p65 translocation robust z-score": -0.45, "nuclear/cytoplasmic p65 ratio, rep 1": 1.47, "nuclear/cytoplasmic p65 ratio, rep 2": 1.25, "low cell count flag": "enough cells to score"}
{"Gene": "Tsc2 (GeneID 22084)", "p65 translocation robust z-score": 1.19, "nuclear/cytoplasmic p65 ratio, rep 1": 1.65, "nuclear/cytoplasmic p65 ratio, rep 2": 1.7, "low cell count flag": "enough cells to score"}

2 neighbouring records from above, quoted:
{"Gene": "Zfp473 (GeneID 243963)", "p65 translocation robust z-score": -0.43, "nuclear/cytoplasmic p65 ratio, rep 1": 1.52, "nuclear/cytoplasmic p65 ratio, rep 2": 1.7, "low cell count flag": "enough cells to score"}
{"Gene": "Wdr45 (GeneID 54636)", "p65 translocation robust z-score": -0.42, "nuclear/cytoplasmic p65 ratio, rep 1": 1.3, "nuclear/cytoplasmic p65 ratio, rep 2": 1.25, "low cell count flag": "enough cells to score"}
